Results: patent US11090383 (CENTRE FOR DRUG RESEARCH AND DEVELOPMENT, dated 2021)

Molecular target: macaque podocalyxin (Macaque Kidney) (macaque (species not further named))
Assay: IHC, formalin fixed normal macaque kidney

B1: Podo447 antibody, recombinant rabbit/human IgG1 chimera (antibody, V domains shown)
VH: QSLEESGGRLVTPGTPLTLTCTASGFSLSGYQMNWVRQAPGKGLEWIGYIWSDGGTDYASWAKGRFTISKTSSTTVDLKMTSLTTEDTATYFCAREGYWLGAFDPWGPGTLVTVSS
VL: AAVLTQTPSPVSAAVGATVSVSCQSSQSVHHKNDLAWFQQKPGQPPKLLIYYTSTLASGVPSRFKGSGSGTQFTLTISDLECDDAATYYCAGVYEGSSDNRAFGGGTEVVVKR
notes: also called anti-Podo
With B1 the binding was “no binding (tested: 1:25 dilution)”.

No constants are given. Whether binding was seen depends on the method and setting.
